Construct, isoform or probe ends are uncertain for at least one entry. For some assays here: At least one verdict rests on a figure or table, not on a statement of the authors. Protein sequences can lack the tags named with them.
Assays:
Bicoid DBD-GST (Bcd) [1] = biological target: T1, Bicoid DBD-GST (Bcd) (UniProt P09081); experiment: competitive fluorescence anisotropy (HiP-FA); conditions: near-complete loss of binding; HiP-FA: 33 mM phosphate pH 7.0, 90 mM NaCl, 0.01% Tween 20, 0.1 mM DTT, 0.5% agarose; conventional titration and EMSA: 20 mM Tris-acetate pH 7.0, 50 nM (sic) NaCl; recombinant protein; protein details: N-terminal GST
T1 sequence (looked up, limits assumed): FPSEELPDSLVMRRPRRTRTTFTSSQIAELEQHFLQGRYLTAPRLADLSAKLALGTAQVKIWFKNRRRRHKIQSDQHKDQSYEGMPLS

Bicoid DBD-GST (Bcd) [2] = biological target: T1, Bicoid DBD-GST (Bcd); experiment: fluorescence anisotropy; conditions: labeled reference, displaced by competitors; HiP-FA: 33 mM phosphate pH 7.0, 90 mM NaCl, 0.01% Tween 20, 0.1 mM DTT, 0.5% agarose; conventional titration and EMSA: 20 mM Tris-acetate pH 7.0, 50 nM (sic) NaCl; recombinant protein; protein details: N-terminal GST; label: 5' Cy5 on strand 1

## TCGACTCCACAGCCTA (double strand) [Bcd heavily mutated competitor]
Bicoid DBD-GST (Bcd) [1]
  Kd: 2.2 µM

## TCGACGCTAAGCTGTA (double strand) [Bcd Cy5 reference DNA]
Bicoid DBD-GST (Bcd) [2]
  binding result: binds

Reference: publication PMC5913336, “True equilibrium measurement of transcription factor-DNA binding affinities using automated polarization microscopy”
